Laboratory results: PubChem BioAssay AID686943 (Drosophila RNAi Screening Center, 2013)
In all, the deposit lists about 23,000 reagents; this is a random part of those with a known target gene and a result. 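Extra replicates exist only for a retested subset of genes; insulin dose and duration not given; both raised and lowered dpERK matter.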 Reagents against one gene are numbered here. Not stated in the record: the amount of reagent, the time to read-out.

Assay: 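Knockdowns that increase or decrease active ERK after insulin receptor stimulation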 (primary screen)
Cells: Drosophila S2R+ haemocyte-like cells expressing YFP-tagged ERK (Rolled)
Reagent: long dsRNA against Drosophila genes
Challenge: insulin stimulation versus unstimulated cells; dose and duration not given
Detection: 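Antibody staining for doubly phosphorylated ERK divided by ERK-YFP signal, as plate z-scores, in insulin-treated and untreated cells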
Direction: replicate 1, z-score of dpERK with insulin and replicate 2, z-score of dpERK with insulin: higher = more active ERK per ERK-YFP after insulin; replicate 1, z-score of dpERK under basal conditions: higher = more basal active ERK per ERK-YFP; replicate 1, z-score of ERK-YFP with insulin: higher = more YFP-tagged ERK signal

| target gene | reagent no. | replicate 1, z-score of dpERK with insulin | replicate 2, z-score of dpERK with insulin | replicate 1, z-score of dpERK under basal conditions | replicate 1, z-score of ERK-YFP with insulin |
| --- | --- | --- | --- | --- | --- |
| CG32767 (GeneID 31430) | 1 | 1.88 | 1.49 | 2.39 | -2.81 |
| MED28 (GeneID 43079) | 1 | 1.21 | 0.6 | -0.83 | -0.26 |
| dsh (GeneID 32078) | 1 | 0.99 | 0.38 | 1.59 | -0.17 |
| Icmt (GeneID 39478) | 1 | 0.38 | 0.69 | -0.8 | 0.22 |
| CG6567 (GeneID 41304) | 1 | -0.77 | 0.06 | 0.51 | 0.01 |
| CR30374 (GeneID 10178922) | 1 | 0.43 | -0.65 | 1.33 | -0.16 |
| CG13784 (GeneID 34003) | 1 | 0.56 | 0.04 | -2.24 | -0.92 |
| CG13784 (GeneID 34003) | 2 | -3.56 | -3.42 | -0.51 | -1.66 |
| CG17359 (GeneID 39549) | 1 | 0.29 | -0.85 | -0.93 | -0.43 |
| l(2)SH0834 (GeneID 34386) | 1 | -1.28 | -0.04 | -2.19 | -0.44 |
| PGRP-SB2 (GeneID 39869) | 1 | 0.77 | 0.51 | -1.37 | -0.75 |
| CG11164 (GeneID 32323) | 1 | 0.04 | 0.03 | -0.29 | 0.3 |
| CG8157 (GeneID 36700) | 1 | -0.47 | -1.05 | -2.37 | 1.33 |
| CG8157 (GeneID 36700) | 2 | 0.84 | -0.03 | -0.32 | -0.3 |
| Ir40a (GeneID 35449) | 1 | 0.2 | 0.37 | -0.14 | 0.06 |
| Ir40a (GeneID 35449) | 2 | -0.29 | -0.38 | -0.99 | -0.01 |
| CG6023 (GeneID 32814) | 1 | 0.2 | 0.49 | -0.68 | 1.42 |
| Dnz1 (GeneID 34503) | 1 | -0.41 | -0.64 | -1.09 | 0.59 |
| DNaseII (GeneID 48228) | 1 | 0.19 | -0.07 | -0.03 | -0.17 |
| CG9997 (GeneID 43395) | 1 | 0.46 | -0.07 | 0.63 | -0.94 |
| Gs1l (GeneID 33653) | 1 | -0.28 | -0.34 | 0.3 | -0.55 |
| CG34278 (GeneID 5740656) | 1 | -0.52 | -0.16 | 0.53 | 0.25 |
| CG18467 (GeneID 36958) | 1 | -0.37 | 0.03 | 0.46 | 0.75 |
